The text below walks through data of article PMC3678999, “A Structural Basis for IκB Kinase 2 Activation Via Oligomerization-Dependent Trans Auto-Phosphorylation” (PLoS Biology, 2013).

Sequences of proteins named here, by UniProt entry; tags and fusion partners are left off.
UniProt O88522: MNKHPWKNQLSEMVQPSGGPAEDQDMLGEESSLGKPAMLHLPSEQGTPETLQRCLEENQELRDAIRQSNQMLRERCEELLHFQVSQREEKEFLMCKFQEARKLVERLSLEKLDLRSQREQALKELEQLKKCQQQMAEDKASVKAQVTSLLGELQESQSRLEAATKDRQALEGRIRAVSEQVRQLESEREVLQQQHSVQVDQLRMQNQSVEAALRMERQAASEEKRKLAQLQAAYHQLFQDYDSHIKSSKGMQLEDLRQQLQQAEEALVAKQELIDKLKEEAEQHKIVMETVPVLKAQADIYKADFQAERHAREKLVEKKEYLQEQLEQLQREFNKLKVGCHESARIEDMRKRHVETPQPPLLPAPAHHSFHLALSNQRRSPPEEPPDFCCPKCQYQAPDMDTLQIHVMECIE

No constants are given. Whether binding was seen depends on the method and setting. Some binding calls cover weakened binding; strength is not graded here.

This test addresses T1, endogenous IKK2 of MEF-3T3 cells (mouse (endogenous in MEF-3T3)) (UniProt O88351).
T1 sequence: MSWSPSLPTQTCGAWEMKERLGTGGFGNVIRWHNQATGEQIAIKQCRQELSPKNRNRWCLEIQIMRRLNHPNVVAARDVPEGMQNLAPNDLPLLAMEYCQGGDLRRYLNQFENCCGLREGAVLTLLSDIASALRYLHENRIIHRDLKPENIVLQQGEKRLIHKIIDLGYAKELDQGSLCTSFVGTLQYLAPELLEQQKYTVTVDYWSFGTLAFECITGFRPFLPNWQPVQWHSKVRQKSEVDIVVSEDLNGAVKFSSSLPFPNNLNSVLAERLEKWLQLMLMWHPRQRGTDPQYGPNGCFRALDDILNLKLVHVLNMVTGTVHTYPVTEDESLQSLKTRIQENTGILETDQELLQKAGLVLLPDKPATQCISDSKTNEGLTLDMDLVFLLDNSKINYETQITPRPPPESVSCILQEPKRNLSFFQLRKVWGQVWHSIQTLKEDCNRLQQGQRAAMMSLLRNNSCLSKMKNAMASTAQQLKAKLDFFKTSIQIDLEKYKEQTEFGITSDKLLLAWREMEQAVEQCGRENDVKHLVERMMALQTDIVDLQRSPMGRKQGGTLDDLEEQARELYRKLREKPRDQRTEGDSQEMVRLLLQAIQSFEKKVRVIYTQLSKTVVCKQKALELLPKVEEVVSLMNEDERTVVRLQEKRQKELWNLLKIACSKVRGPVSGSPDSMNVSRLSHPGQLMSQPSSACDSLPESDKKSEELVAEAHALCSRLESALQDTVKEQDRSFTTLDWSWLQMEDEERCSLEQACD
Kind of test: SEC; cytosolic extracts of MEF-3T3 cells, untreated or treated with 10 ng/mL TNF for 10 min, on Superose 6; fractions blotted with anti-IKK2 and anti-NEMO; 25 mM Tris pH 7.5, 150 mM NaCl, 5% glycerol, 2 mM DTT. (Size exclusion chromatography separates by hydrodynamic size, large species first.)

As to “endogenous NEMO of MEF-3T3 cells (from UniProt O88522 1-412)”, the binding entry is on record as “binds”.
